Where a name gives a salt, the structure may show the parent alone. This is one part of the list. Hit calls seldom repeat between salt and free forms of one compound.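 Kinases, fused to nanoluciferase, were expressed in K562 cells; luminescence was measured every 4 h from 2 to 18 h as percent of control (DMSO = 100%, positive control = 0%). A time point is decreased if signal falls significantly (2 sigma). Hits were called by the authors by a rule that is not shown; the count of time points alone does not decide it.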
Experiments:
Assay in all cases: number of time points (of 5) at which kinase-Nluc abundance scored as decreased, DMSO-normalised (count); higher = more persistent destabilization
Conditions in all cases: K562; 2-18 h
EGFR_L861Q = EGFR_L861Q (UniProt P00533)
EGFR_T790M = EGFR_T790M (UniProt P00533)
EPHA2 = EPHA2 (UniProt P29317)
ERBB3 = ERBB3 (UniProt P21860)
[1] = target: ERBB4_R711C (clone: ERBB4_mut) (UniProt Q15303)
ERN1 = ERN1 (UniProt O75460)
FGFR1 = FGFR1 (UniProt P11362)
FGFR2 = FGFR2 (UniProt P21802)
FGFR3 = FGFR3 (UniProt P22607)
FGR = FGR (UniProt P09769)

Sequences of proteins named here, by UniProt entry; tags and fusion partners are left off. A change or cut given only in a name is not applied to a line headed by its entry.
UniProt P29317, whole entry: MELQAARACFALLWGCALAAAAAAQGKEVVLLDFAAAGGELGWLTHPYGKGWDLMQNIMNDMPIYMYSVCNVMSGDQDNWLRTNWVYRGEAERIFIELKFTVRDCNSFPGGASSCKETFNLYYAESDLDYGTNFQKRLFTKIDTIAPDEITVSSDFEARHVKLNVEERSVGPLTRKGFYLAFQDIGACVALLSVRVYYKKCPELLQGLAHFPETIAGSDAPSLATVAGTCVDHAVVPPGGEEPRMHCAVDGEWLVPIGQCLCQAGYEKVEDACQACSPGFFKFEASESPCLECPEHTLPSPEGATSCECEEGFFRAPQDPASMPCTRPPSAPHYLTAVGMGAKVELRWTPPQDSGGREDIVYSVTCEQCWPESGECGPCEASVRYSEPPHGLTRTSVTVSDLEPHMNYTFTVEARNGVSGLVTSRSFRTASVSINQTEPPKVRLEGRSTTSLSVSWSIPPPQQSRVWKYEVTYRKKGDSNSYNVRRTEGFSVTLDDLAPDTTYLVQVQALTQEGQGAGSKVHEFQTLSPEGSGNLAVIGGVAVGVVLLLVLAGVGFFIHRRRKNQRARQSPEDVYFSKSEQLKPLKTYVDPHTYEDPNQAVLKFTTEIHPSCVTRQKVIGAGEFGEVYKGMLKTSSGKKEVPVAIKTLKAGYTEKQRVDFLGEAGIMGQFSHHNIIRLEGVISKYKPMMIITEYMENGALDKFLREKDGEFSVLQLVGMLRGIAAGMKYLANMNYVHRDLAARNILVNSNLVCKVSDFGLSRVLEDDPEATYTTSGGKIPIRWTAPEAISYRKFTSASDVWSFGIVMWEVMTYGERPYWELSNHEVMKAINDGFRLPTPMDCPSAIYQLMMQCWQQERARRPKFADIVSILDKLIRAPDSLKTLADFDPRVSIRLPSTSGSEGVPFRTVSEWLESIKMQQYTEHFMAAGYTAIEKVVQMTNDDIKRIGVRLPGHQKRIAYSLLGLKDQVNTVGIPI
UniProt P21860, whole entry: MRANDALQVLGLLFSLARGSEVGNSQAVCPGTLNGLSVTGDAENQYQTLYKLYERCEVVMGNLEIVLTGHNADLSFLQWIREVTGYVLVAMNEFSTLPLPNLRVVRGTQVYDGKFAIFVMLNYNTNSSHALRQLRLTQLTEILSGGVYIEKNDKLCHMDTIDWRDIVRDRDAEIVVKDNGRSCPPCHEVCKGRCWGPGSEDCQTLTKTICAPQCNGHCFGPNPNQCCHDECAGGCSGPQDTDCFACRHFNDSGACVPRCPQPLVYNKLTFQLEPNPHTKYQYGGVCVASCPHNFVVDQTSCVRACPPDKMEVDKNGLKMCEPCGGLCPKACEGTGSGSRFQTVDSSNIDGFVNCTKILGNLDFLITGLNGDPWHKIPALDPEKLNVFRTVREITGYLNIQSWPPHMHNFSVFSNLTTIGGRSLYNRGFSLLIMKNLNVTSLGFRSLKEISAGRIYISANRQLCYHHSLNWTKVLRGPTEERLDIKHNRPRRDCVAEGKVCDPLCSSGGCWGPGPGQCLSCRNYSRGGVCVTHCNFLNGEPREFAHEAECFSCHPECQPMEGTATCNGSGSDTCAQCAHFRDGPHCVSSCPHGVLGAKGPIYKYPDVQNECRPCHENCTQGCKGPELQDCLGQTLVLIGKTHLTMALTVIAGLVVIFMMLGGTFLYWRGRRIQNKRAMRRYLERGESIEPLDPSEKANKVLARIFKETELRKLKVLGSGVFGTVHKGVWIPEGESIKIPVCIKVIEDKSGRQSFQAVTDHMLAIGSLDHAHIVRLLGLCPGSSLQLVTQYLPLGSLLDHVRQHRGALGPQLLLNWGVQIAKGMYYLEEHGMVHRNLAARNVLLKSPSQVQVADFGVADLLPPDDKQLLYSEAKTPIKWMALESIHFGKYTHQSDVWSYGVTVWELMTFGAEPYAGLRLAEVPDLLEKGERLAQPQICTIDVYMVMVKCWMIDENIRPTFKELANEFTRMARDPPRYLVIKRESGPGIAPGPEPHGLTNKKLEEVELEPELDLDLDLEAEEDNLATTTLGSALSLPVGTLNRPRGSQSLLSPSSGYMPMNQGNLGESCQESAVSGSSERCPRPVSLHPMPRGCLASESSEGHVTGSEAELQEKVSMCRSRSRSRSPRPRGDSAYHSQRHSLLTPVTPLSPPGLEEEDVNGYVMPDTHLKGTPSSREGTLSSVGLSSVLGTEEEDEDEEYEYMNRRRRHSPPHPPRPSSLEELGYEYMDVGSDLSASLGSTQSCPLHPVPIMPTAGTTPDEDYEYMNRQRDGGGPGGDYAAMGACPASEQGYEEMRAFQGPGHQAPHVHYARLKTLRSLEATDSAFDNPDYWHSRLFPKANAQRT
UniProt Q15303, whole entry R711C: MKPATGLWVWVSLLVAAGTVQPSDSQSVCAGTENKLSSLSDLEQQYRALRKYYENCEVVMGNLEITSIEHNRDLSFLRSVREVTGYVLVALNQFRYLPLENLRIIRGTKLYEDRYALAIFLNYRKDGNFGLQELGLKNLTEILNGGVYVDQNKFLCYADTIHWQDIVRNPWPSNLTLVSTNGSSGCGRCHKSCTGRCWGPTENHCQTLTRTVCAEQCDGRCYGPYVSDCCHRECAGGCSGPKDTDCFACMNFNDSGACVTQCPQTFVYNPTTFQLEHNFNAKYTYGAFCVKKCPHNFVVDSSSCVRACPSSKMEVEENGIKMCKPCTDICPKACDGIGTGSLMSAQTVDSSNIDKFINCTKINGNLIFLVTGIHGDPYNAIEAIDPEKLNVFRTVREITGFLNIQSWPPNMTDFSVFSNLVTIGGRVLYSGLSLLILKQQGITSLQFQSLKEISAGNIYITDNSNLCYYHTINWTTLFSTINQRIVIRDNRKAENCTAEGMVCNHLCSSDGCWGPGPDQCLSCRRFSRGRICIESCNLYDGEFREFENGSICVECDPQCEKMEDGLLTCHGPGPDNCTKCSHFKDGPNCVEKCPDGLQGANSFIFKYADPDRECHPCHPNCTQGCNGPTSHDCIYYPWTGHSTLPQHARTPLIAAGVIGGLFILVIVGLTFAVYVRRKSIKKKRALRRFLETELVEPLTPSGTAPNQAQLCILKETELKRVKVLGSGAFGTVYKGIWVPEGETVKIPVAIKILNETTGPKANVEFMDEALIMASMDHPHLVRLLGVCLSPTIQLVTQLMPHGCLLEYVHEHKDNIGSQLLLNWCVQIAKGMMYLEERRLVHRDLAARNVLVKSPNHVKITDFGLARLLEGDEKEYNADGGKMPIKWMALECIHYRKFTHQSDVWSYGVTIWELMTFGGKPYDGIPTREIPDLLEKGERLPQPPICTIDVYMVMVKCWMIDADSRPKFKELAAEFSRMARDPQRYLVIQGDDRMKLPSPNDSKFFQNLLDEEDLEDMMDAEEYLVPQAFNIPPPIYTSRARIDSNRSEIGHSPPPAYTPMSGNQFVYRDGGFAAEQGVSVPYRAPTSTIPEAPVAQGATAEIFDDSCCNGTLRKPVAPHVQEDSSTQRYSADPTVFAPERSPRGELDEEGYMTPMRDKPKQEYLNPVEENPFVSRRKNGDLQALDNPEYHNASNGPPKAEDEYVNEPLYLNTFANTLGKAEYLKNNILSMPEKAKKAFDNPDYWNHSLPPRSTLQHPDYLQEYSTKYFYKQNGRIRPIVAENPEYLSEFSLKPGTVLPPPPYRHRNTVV
UniProt O75460: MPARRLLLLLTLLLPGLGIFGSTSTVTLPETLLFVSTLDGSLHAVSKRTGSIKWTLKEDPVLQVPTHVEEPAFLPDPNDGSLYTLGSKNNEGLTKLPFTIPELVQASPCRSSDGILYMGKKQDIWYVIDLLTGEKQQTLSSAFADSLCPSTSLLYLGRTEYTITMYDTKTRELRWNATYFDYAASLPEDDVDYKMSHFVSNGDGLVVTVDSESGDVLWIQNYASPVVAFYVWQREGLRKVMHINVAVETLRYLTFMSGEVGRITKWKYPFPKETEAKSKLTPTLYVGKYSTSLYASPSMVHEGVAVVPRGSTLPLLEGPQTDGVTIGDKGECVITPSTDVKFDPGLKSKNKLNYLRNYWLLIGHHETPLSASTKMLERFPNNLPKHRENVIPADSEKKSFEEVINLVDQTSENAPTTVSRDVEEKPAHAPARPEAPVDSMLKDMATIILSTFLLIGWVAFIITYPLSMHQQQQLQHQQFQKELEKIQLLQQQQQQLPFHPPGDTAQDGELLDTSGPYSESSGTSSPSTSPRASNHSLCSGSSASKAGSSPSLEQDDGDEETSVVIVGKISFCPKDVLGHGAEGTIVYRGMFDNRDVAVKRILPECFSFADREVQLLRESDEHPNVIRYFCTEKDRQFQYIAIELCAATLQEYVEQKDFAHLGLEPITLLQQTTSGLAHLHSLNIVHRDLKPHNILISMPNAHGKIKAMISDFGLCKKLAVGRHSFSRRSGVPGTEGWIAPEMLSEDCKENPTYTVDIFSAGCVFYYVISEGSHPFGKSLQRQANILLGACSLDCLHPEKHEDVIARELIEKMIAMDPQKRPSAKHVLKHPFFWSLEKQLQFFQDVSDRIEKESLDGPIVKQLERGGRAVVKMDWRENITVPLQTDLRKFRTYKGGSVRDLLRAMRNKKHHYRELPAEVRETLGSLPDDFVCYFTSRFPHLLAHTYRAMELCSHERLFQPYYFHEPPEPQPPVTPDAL
UniProt P11362, whole entry, looked up: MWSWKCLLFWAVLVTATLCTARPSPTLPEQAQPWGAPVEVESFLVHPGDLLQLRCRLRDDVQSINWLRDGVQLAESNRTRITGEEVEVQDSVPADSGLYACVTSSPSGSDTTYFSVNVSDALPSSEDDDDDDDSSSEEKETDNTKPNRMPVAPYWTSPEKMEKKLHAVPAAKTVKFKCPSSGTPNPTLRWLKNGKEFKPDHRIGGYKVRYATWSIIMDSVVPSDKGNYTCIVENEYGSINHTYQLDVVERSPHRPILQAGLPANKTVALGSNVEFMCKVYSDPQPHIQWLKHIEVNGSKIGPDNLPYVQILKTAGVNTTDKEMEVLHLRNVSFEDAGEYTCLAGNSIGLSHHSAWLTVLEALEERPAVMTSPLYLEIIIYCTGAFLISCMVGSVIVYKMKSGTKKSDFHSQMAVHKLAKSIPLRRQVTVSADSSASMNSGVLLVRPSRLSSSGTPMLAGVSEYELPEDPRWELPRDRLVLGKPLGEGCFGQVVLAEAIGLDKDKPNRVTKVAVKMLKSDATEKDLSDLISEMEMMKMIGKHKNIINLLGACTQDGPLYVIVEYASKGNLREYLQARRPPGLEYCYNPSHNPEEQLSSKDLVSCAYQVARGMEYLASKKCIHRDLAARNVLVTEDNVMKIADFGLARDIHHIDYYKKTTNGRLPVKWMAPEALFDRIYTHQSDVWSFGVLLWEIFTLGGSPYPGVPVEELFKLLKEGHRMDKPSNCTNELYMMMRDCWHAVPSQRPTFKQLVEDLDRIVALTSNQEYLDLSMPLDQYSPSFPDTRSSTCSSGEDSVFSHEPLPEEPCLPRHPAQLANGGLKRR
UniProt P22607, whole entry, looked up: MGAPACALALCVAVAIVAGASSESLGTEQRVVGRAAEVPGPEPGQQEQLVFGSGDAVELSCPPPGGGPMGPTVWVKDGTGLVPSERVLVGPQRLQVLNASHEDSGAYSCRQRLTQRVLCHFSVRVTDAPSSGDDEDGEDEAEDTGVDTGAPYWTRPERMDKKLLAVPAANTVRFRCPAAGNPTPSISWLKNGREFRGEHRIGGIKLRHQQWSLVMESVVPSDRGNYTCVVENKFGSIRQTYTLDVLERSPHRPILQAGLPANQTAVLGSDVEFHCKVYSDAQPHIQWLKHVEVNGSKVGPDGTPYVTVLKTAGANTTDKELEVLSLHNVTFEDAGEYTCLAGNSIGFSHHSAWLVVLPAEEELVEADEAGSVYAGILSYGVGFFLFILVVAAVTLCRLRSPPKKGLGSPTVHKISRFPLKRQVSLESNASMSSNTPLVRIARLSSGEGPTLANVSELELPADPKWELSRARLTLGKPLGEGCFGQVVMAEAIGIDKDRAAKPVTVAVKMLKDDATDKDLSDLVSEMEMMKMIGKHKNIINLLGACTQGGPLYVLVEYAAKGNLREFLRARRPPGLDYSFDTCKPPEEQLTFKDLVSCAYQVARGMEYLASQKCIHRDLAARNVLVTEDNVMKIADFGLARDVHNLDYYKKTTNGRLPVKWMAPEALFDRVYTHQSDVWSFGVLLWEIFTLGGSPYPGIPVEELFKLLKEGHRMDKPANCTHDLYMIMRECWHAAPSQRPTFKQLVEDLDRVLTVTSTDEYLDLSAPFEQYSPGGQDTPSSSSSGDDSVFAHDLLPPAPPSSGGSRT

Measured: number of time points

Cc1ccc(Nc2c(C(N)=O)cnc3cc(-c4ccncc4)ccc23)cc1C [cFMS Receptor Inhibitor II] (10 µM)
0: all assays above

O=c1[nH]nc(Sc2ncc([N+](=O)[O-])s2)n1-c1ccc2c(c1)OCCO2 (2.5 µM)
0: all assays above

C[C@]1(O)C[C@@](N)(c2ccc(-c3nc4n(c3-c3ccccc3)COc3ccncc3-4)cc2)C1 [TAS-117 (hydrochloride)] (10 µM)
0: all assays above

Cc1ccc(-n2c(-c3ccc(O)cc3O)n[nH]c2=O)cc1 (10 µM)
4: EGFR_L861Q | ERBB3
2: EGFR_T790M
3: [1] | FGFR2
1: ERN1
0: all other assays above

COc1c(OCCCN2CCOCC2)ccc2c3n(c(=NC(=O)c4cnc(N)nc4)nc12)CCN3 [Copanlisib (dihydrochloride)] (10 µM)
4: [1] | FGFR3
1: EGFR_T790M
2: FGFR1
3: EGFR_L861Q | ERBB3 | FGFR2
0: all other assays above

O=C(N=c1sccn1Cc1ccccc1)c1c[nH]c2ncccc12 (10 µM)
0: all assays above

O=C(CC(c1ccccc1)C(C(=O)O)C(=O)O)c1ccc(C(F)(F)F)cc1 (stereo not given) (10 µM)
0: all assays above

C[C@@H](N)COc1ccc(-c2cnc3ccc(N[C@H](C)c4cccc(F)c4)nn23)cc1 [Taletrectinib] (2.5 µM)
0: all assays above

O=S(=O)(N=Cc1c(O)ccc2ccccc12)c1cccs1 (10 µM)
0: all assays above

Fetched one by one from the list above (2):
O=C(N=c1sccn1Cc1ccccc1)c1c[nH]c2ncccc12 (10 µM)
0: all assays above

C[C@@H](N)COc1ccc(-c2cnc3ccc(N[C@H](C)c4cccc(F)c4)nn23)cc1 [Taletrectinib] (2.5 µM)
0: all assays above

More results

N#Cc1cn([C@@H]2O[C@H](CO)[C@@H](O)[C@H]2O)c2nc[nH]c(=O)c12 [Jaspamycin] (10 µM)
0: all assays above

Cn1sc(=O)n(Cc2ccccc2)c1=O (10 µM)
0: all assays above

Nc1n[nH]c(N)c1N=Nc1ccc(O)cc1 (10 µM)
0: all assays above

CN1CCC(c2ccccc2CC(C)(C)Nc2nc(N3CCOCC3)nc(-n3c(S(C)(=O)=O)nc4ccccc43)n2)CC1 (10 µM)
0: all assays above

O=C(O)[C@]1(Cc2cccc(Nc3nccs3)n2)CC[C@@H](Oc2cccc(Cl)c2F)CC1 (2.5 µM)
1: EGFR_L861Q | EGFR_T790M | FGFR2
3: [1]
2: ERBB3
0: all other assays above

Cc1cc(=O)[nH]c(=S)[nH]1 [Methylthiouracil] (10 µM)
0: all assays above

CCS(=O)(=O)c1ccc(Oc2cc(O[C@@H](C)CO)cc(C(=O)Nc3ccn(C)n3)c2)cn1 (10 µM)
0: all assays above

COc1ccc2c(c1)C[C@H](C(=O)Nc1ccc(-c3cn[nH]c3)cc1OCCN(C)C)CO2 [Chroman 1] (10 µM)
0: all assays above

CN(C)CCCn1cc(C2=C(c3c[nH]c4ccccc34)C(=O)NC2=O)c2ccccc21 [Bisindolylmaleimide I] (2.5 µM)
0: all assays above

Source: the supplement of paper PMC12823440, “Inhibitors supercharge kinase turnover through native proteolytic circuits” (Nature, 2025)
